# From PubChem BioAssay AID2685 (National Center for Advancing Translational Sciences (NCATS), 2010)
# The campaign covered roughly 320,000 compounds. About 2,100 (0.66%) were called active. Inconclusive means that the source gave no clear call. Such entries were picked first, then a sample of the others. Calls come from the whole dose curve; as a rule, active = well fitted inhibition curve with a large enough effect in the signal ratio, with a control signal flat (not every such curve was filed as active); inconclusive = small, poorly fitted or top-dose-only effect, or effect the other way, or a change in a side signal; inactive = flat fitted curve, though single readings scatter; the % refers to the signal ratio. Where the call is inconclusive, the potency comes from a doubtful curve fit.
# Assay: qHTS Assay for Lipid Storage Modulators in Drosophila S3 Cells
# Conditions: BODIPY lipid droplet fluorescence, 18-24 h, cells fed with added oleic acid; lipid storage change, negative = inhibition: at 46.1 µM (top of the series) unless noted
# Outline: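 Drosophila S3 cells loaded with oleic acid (400 uM, as added) and compounds at several concentrations; lipid droplets imaged by 488-nm laser-scanning cytometry, 500–530 nm intensity and object ratio to cell channel. Percent activity normalized to 20 uM Triacsin C.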
# % is set by controls: 0 for no effect and ±100 for the full control effect; potency is the fitted concentration of half-maximal effect.
Compound,Potency,"lipid storage change, negative = inhibition"
Cc1ccnc(NC(=O)c2cccc(S(=O)(=O)N3CCN(c4ccc(F)cc4)CC3)c2)c1,"inconclusive: 7.31 µM [activator, partial curve]",
COC(=O)CNC(=O)CN1c2cccc3cccc(c23)S1(=O)=O,,inconclusive: 1.93%
O=C1CCCC/C1=C/NCc1ccc(F)cc1,,inconclusive: -11.4%
CC1CCC/C(=N\NC(=O)c2ccncc2)C1 (centres undefined),,inconclusive: -2.01%
CC(=O)Nc1cc(C(=O)OCC(=O)c2ccc(C)cc2)ccc1C,"inconclusive: 0.651 µM [activator, full curve, poor fit]",
COc1ccc(CNC(=O)CN(C(=O)c2csnn2)c2ccc(C(C)=O)cc2)cc1,"inconclusive: 6.51 µM [activator, partial curve, poor fit]",
O=C(Nc1ccc(Cl)cc1)Nc1ccccn1,,inconclusive: 10.7%
O=C(NC1CC1)C1CCN(C(=O)c2ccc(Cl)cc2)CC1,,inconclusive: 83.4%
Cc1cccc(Oc2cc(NC(=O)c3ccccc3)cc([N+](=O)[O-])c2)c1,,inconclusive: -87.7%
Cc1ccc(CSCC2Nc3ccc(C(=O)N4CCN(c5ccc(F)cc5)CC4)cc3NC2=O)cc1 (centres undefined),,inconclusive: -79.1%
O=C(CNC(=O)c1ccco1)NCC(=O)OCc1ccccc1Cl,,inconclusive: 36%
CC(=O)N1N=C(c2ccccc2)CC1c1ccc2c(c1)OCO2 (centres undefined),"inconclusive: 6.51 µM [activator, single point]",
Cc1cc2nnc(SCCCCN3C(=O)c4ccccc4C3=O)n2c2ccccc12,,inconclusive: -1.84%
Cc1cc(-c2csc(Nc3ccccn3)n2)ccc1F,,inconclusive: -54.9%
Cc1nc([N+](=O)[O-])cn1CC(=O)c1ccc(Br)cc1,,inconclusive: 14%
CCOC(=O)c1cc(-c2ccc(C)o2)n[nH]1,,inconclusive: 32.4%
Cc1ccc(OCC(=O)Nc2cc(C(C)(C)C)on2)cc1C,"inconclusive: 18.4 µM [falling, single point]",
CCS(=O)(=O)c1ncc(Cl)c(C(=O)Nc2ccc(S(=O)(=O)N3CCCC(C)C3)cc2)n1 (centres undefined),active: 0.146 µM,
Cc1cc(N2CCN(Cc3cn(C)nc3-c3ccccc3F)CC2)cc(C)n1,,inconclusive: 1.84%
COc1cc(OC)cc(C(=O)NCC(=O)N2CCCCC2)c1,,inconclusive: -19.7%

Compound,Potency,"lipid storage change, negative = inhibition"
CCOc1ccc2[nH]c3nc(SCC(=O)OC(C)C)nnc3c2c1,"inconclusive: 0.82 µM [falling, partial curve]",
CC(C)(C)C(=O)NC(NC(=O)C(C)(C)C)c1ccc([N+](=O)[O-])cc1,"inconclusive: 6.51 µM [rising, single point]",
O=C(N/N=C/c1cc(Cl)ccc1O)c1ccncc1,,inconclusive: 10%
CCCOc1ccc(/C(O)=C2/C(=O)C(=O)N(CCN(C)C)C2c2ccc(OC)c(OC)c2)cc1 (centres undefined),,inconclusive: 10.6%
CCc1nc(SCC(=O)Nc2ccc(Br)cn2)n[nH]1,,inconclusive: 21%
CCC1(c2ccccc2)NC(=O)N(CC(=O)Nc2cc(S(=O)(=O)N3CCCCC3)ccc2OC(C)C)C1=O (centres undefined),,inconclusive: 46.5%
CCOc1ccc(-c2nonc2NC(=O)c2ccco2)cc1,,inconclusive: -49.4%
CC1CC1C(=O)OCC(=O)NNC(=O)c1ccc([N+](=O)[O-])cc1 (centres undefined),,inconclusive: 8.07%
CCC(C)(C)NC(=O)CN(Cc1ccc(F)cc1)C(=O)CCC(=O)Nc1ccccn1,,inconclusive: 205%
O=C(Nc1cccnc1)C1CCC(CNS(=O)(=O)c2cccc3nsnc23)CC1 (centres undefined),,inconclusive: -2.24%
N/C(=N\OC(=O)c1ccc2c(c1)OCO2)c1ccc(Br)cc1,,inconclusive: 25.1% [at 9.22 µM]
CN(C)CCCNCC(=O)c1c(-c2ccccc2)n(C)c2ccccc12,,inconclusive: -27.4%
COc1ccc(N=C(C)c2sc3ccccc3c2O)cc1,"inconclusive: 29.1 µM [falling, single point]",
Cc1cc(C)c(C#N)c(SCC(=O)Nc2nnc(-c3ccccc3)s2)n1,"inconclusive: 3.26 µM [activator, partial curve]",
COc1cc(C(=O)Nc2ccc3c(c2)nc(C)n3C)cc(OC)c1OC,"inconclusive: 29.1 µM [falling, single point]",
COc1ccc(Br)cc1/C=N/NC(=O)C[n+]1ccccc1,,inconclusive: -67.8%
CCC(C(=O)N1CCN(c2ccccc2OC)CC1)c1ccccc1 (centres undefined),,inconclusive: 22.2%
O=C(NCCCN1CCOCC1)c1cccc(S(=O)(=O)N2CCOCC2)c1,,inconclusive: -8.87%
CCc1nn(CC(=O)N2CCC(C(N)=O)CC2)c(=O)c2cc3occc3n12,"inconclusive: 6.51 µM [activator, single point]",

# Some of these compounds in order of SMILES length, smallest number first:
Compound,Potency,"lipid storage change, negative = inhibition"
COc1ccc(N=C(C)c2sc3ccccc3c2O)cc1,"inconclusive: 29.1 µM [falling, single point]",
COc1ccc(Br)cc1/C=N/NC(=O)C[n+]1ccccc1,,inconclusive: -67.8%
CN(C)CCCNCC(=O)c1c(-c2ccccc2)n(C)c2ccccc12,,inconclusive: -27.4%
COc1cc(C(=O)Nc2ccc3c(c2)nc(C)n3C)cc(OC)c1OC,"inconclusive: 29.1 µM [falling, single point]",
Cc1cc(C)c(C#N)c(SCC(=O)Nc2nnc(-c3ccccc3)s2)n1,"inconclusive: 3.26 µM [activator, partial curve]",
CC1CC1C(=O)OCC(=O)NNC(=O)c1ccc([N+](=O)[O-])cc1 (centres undefined),,inconclusive: 8.07%
CCc1nn(CC(=O)N2CCC(C(N)=O)CC2)c(=O)c2cc3occc3n12,"inconclusive: 6.51 µM [activator, single point]",
CCC(C)(C)NC(=O)CN(Cc1ccc(F)cc1)C(=O)CCC(=O)Nc1ccccn1,,inconclusive: 205%
CC(C)(C)C(=O)NC(NC(=O)C(C)(C)C)c1ccc([N+](=O)[O-])cc1,"inconclusive: 6.51 µM [rising, single point]",
CCCOc1ccc(/C(O)=C2/C(=O)C(=O)N(CCN(C)C)C2c2ccc(OC)c(OC)c2)cc1 (centres undefined),,inconclusive: 10.6%
